Results are given in words; binding and its absence hold for the method and conditions named. Binding seen in cells or lysates may run through a third protein.
Biological target: RBP-jκ (human (endogenous in LCL and Mutu I)) (UniProt Q06330)
Assay: co-IP; MutuI (M) or LCL (L) cell extracts, IP with control IgG, anti-EBF1 or anti-RBP-jκ, Western blot for EBNA2, EBF1 or RBP-jκ; input 2% of starting lysate

Protein sequences, listed by entry. Tags and fused reporters are not part of them.
UniProt Q06330: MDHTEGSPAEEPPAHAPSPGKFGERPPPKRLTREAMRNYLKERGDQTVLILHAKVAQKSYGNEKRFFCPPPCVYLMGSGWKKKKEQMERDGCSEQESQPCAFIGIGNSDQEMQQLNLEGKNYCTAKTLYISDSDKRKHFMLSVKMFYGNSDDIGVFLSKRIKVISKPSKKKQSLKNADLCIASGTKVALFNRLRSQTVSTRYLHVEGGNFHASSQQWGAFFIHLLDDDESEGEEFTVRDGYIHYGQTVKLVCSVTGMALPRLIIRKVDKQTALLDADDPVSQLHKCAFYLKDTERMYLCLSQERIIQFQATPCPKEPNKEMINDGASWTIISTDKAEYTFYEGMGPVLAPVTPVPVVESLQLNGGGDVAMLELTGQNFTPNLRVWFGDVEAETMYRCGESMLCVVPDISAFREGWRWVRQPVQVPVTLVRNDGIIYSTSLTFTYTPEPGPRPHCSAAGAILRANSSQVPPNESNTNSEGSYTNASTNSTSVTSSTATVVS

binding: no binding
B1: Early B-cell Factor 1 (EBF1) (protein, UniProt Q9UH73 1-591)
chain: MFGIQESIQRSGSSMKEEPLGSGMNAVRTWMQGAGVLDANTAAQSGVGLARAHFEKQPPSNLRKSNFFHFVLALYDRQGQPVEIERTAFVGFVEKEKEANSEKTNNGIHYRLQLLYSNGIRTEQDFYVRLIDSMTKQAIVYEGQDKNPEMCRVLLTHEIMCSRCCDKKSCGNRNETPSDPVIIDRFFLKFFLKCNQNCLKNAGNPRDMRRFQVVVSTTVNVDGHVLAVSDNMFVHNNSKHGRRARRLDPSEGTPSYLEHATPCIKAISPSEGWTTGGATVIIIGDNFFDGLQVIFGTMLVWSELITPHAIRVQTPPRHIPGVVEVTLSYKSKQFCKGTPGRFIYTALNEPTIDYGFQRLQKVIPRHPGDPERLPKEVILKRAADLVEALYGMPHNNQEIILKRAADIAEALYSVPRNHNQLPALANTSVHAGMMGVNSFSGQLAVNVSEASQATNQGFTRNSSSVSPHGYVPSTTPQQTNYNSVTTSMNGYGSAAMSNLGGSPTFLNGSAANSPYAIVPSSPTMASSTSLPSNCSSSSGIFSFSPANMVSAVKQKSAFAPVVRPQTSPPPTCTSTNGNSLQAISGMIVPPM
